From the supplement of paper PMC4604168 (melanoma cell lines)
This is one part of the list. Many values rest on one well or one pass, so single values are uncertain.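 Cells were imaged in 1,536-well plates, and nuclei stained with an antibody against cleaved PARP were counted against all DNA-stained nuclei to give the apoptosis fraction. Screening doses were chosen to leave most cells alive, and resting and induced cleaved-PARP levels differ strongly between cell lines.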

System: SkMel30
Assay: cleaved PARP positive nuclei fraction relative to DMSO control; melanoma cells; higher = more apoptosis
Details: library dose: low library concentration; 72 h

Structure (SMILES)	cleaved PARP positive nuclei fraction [%]
CC1(C)CCC(c2ccc(Cl)cc2)=C(CN2CCN(c3ccc(C(=O)NS(=O)(=O)c4ccc(N[C@H](CCN5CCOCC5)CSc5ccccc5)c(S(=O)(=O)C(F)(F)F)c4)cc3)CC2)C1 + CCN(CC)CCCCNc1ncc2cc(-c3cc(OC)cc(OC)c3)c(NC(=O)NC(C)(C)C)nc2n1 [PD173074] (first compound 0.4 µM, partner dose 0.1 µM)	22.9
C[C@]1(O)C[C@@H](c2nc(-c3ccc4ccc(-c5ccccc5)nc4c3)c3c(N)nccn32)C1 + COc1cc2ncnc(Nc3ccc(Oc4ccccc4)cc3)c2cc1OC [SrcI1] (first compound 0.4 µM, partner dose 2 µM)	325
CC1(C)CCC(c2ccc(Cl)cc2)=C(CN2CCN(c3ccc(C(=O)NS(=O)(=O)c4ccc(N[C@H](CCN5CCOCC5)CSc5ccccc5)c(S(=O)(=O)C(F)(F)F)c4)cc3)CC2)C1 + CCc1ccc(CCOc2ccc(CC3SC(=O)NC3=O)cc2)nc1 [pioglitazone] (first compound 0.4 µM, partner dose 2 µM)	110
C[C@@H](N)c1ccc(C(=O)Nc2ccnc3[nH]ccc23)cc1 + CCN(CC)CCCCNc1ncc2cc(-c3cc(OC)cc(OC)c3)c(NC(=O)NC(C)(C)C)nc2n1 [PD173074] (first compound 0.4 µM, partner dose 0.1 µM)	127
CCN(CC)CCNC(=O)c1c(C)[nH]c(/C=C2\C(=O)Nc3ccc(F)cc32)c1C [sunitinib] + Cc1cc(N2CCOCC2)cc2[nH]c(-c3c(NC[C@@H](O)c4cccc(Cl)c4)cc[nH]c3=O)nc12 [BMS536924] (first compound 0.4 µM, partner dose 0.2 µM)	83.2
NC(=O)c1ccc(N(C(N)=O)c2c(F)cccc2F)nc1-c1ccc(F)cc1F + O=C(Nc1cccc(Cl)c1)Nc1ncc(CCNc2ncnc3ccsc23)s1 [SNS314] (first compound 0.4 µM, partner dose 0.0008 µM)	55.1
Cn1cnc2c(F)c(Nc3ccc(Br)cc3Cl)c(C(=O)NOCCO)cc21 [selumetinib] + Cc1ccc(NC(=O)c2cccc(N(C)C)c2)cc1NC(=O)c1ccc(O)cc1 [ZM336372] (first compound 0.015 µM, partner dose 2 µM)	59.9
CS(=O)(=O)c1ccc(C(=O)Nc2ccc(Cl)c(-c3ccccn3)c2)c(Cl)c1 [vismodegib] + NC(=O)Nc1cc(-c2cccc(F)c2)sc1C(=O)N[C@H]1CCCNC1 [AZD7762] (first compound 1 µM, partner dose 0.02 µM)	67.8
Cn1cnc2c(F)c(Nc3ccc(Br)cc3Cl)c(C(=O)NOCCO)cc21 [selumetinib] + Cc1cc(N2CCOCC2)cc2[nH]c(-c3c(NC[C@@H](O)c4cccc(Cl)c4)cc[nH]c3=O)nc12 [BMS536924] (first compound 0.015 µM, partner dose 0.2 µM)	134
Cn1cnc2c(F)c(Nc3ccc(Br)cc3Cl)c(C(=O)NOCCO)cc21 [selumetinib] + Oc1nc(-c2ccc(C(F)(F)F)cc2)nc2c1CSCC2 [XAV939] (first compound 0.015 µM, partner dose 2 µM)	126
COc1ccc(C2=N[C@@H](c3ccc(Cl)cc3)[C@@H](c3ccc(Cl)cc3)N2C(=O)N2CCNC(=O)C2)c(OC(C)C)c1 [Nutlin-3] + Oc1nc(-c2ccc(C(F)(F)F)cc2)nc2c1CSCC2 [XAV939] (first compound 0.1 µM, partner dose 2 µM)	108
NC(=O)c1ccc(N(C(N)=O)c2c(F)cccc2F)nc1-c1ccc(F)cc1F + COc1cc2c(Oc3ccc4[nH]c(C)cc4c3F)ncnc2cc1OCCCN1CCCC1 [cediranib] (first compound 0.4 µM, partner dose 0.4 µM)	75.2
Cn1cnc2c(F)c(Nc3ccc(Br)cc3Cl)c(C(=O)NOCCO)cc21 [selumetinib] + CCN(CC)CCCCNc1ncc2cc(-c3cc(OC)cc(OC)c3)c(NC(=O)NC(C)(C)C)nc2n1 [PD173074] (first compound 0.015 µM, partner dose 0.1 µM)	114
CN(c1ncccc1CNc1nc(Nc2ccc3c(c2)CC(=O)N3)ncc1C(F)(F)F)S(C)(=O)=O + Oc1nc(-c2ccc(C(F)(F)F)cc2)nc2c1CSCC2 [XAV939] (first compound 0.08 µM, partner dose 2 µM)	42.6

Part of the list above, with bars between the fields.
Structure (SMILES) | cleaved PARP positive nuclei fraction [%]
CC1(C)CCC(c2ccc(Cl)cc2)=C(CN2CCN(c3ccc(C(=O)NS(=O)(=O)c4ccc(N[C@H](CCN5CCOCC5)CSc5ccccc5)c(S(=O)(=O)C(F)(F)F)c4)cc3)CC2)C1 + CCN(CC)CCCCNc1ncc2cc(-c3cc(OC)cc(OC)c3)c(NC(=O)NC(C)(C)C)nc2n1 [PD173074] (first compound 0.4 µM, partner dose 0.1 µM) | 22.9
Cn1cnc2c(F)c(Nc3ccc(Br)cc3Cl)c(C(=O)NOCCO)cc21 [selumetinib] + Cc1cc(N2CCOCC2)cc2[nH]c(-c3c(NC[C@@H](O)c4cccc(Cl)c4)cc[nH]c3=O)nc12 [BMS536924] (first compound 0.015 µM, partner dose 0.2 µM) | 134
